Assay in all cases: cleaved PARP positive nuclei fraction relative to DMSO control; melanoma cells; higher = more apoptosis
Conditions in all cases: library dose: low library concentration; 72 h

Assay [1] concerns 501Mel.
For assay [2], the system named is A101D.
For assay [3], the system named is A2058.
In assay [4] the test system is A375.
The test system of assay [5] is C32.
Assay [6] relates to CBRC008 (line from a melanoma biopsy).
Assay [7] deals with CBRC014 (line from a melanoma biopsy).
Assay [8] concerns CBRC016 (line from a melanoma biopsy).
Assay [9] has as its system CBRC017 (line from a melanoma biopsy).

Some of the results follow. Single values are uncertain, as repeats are few or missing.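 The apoptosis fraction was the count of cleaved-PARP antibody-stained nuclei relative to all DNA-stained nuclei, imaged in 1,536-well plates. Screening doses were set so most cells survived, and baseline and induced cleaved-PARP levels vary greatly across cell lines.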

Turning to `N.N.[Cl][Pt][Cl]` [cisplatin] + COc1ccc(Cl)c(Nc2nc3ccccc3nc2NS(=O)(=O)c2cccc(NC(=O)C(C)(C)N)c2)c1 [XL147] (first compound 1.6 µM, partner dose 0.8 µM), the “cleaved PARP positive nuclei fraction” value in assay [1] was found to be 58.5%; in assay [2], 100%; in assay [3] it was 155%; in assay [4] it was 44.1%; in assay [5] it was 67.3%; in [6] it was 170%. For the same compound, the “cleaved PARP positive nuclei fraction” value came out at 147% in assay [7], 151% in assay [8] and 223% in [9].

As to `C[C@@H](N)c1ccc(C(=O)Nc2ccnc3[nH]ccc23)cc1` + C[C@]12O[C@H](C[C@]1(O)CO)n1c3ccccc3c3c4c(c5c6ccccc6n2c5c31)CNC4=O [Lestaurtinib] (first compound 0.4 µM, partner dose 0.004 µM), the “cleaved PARP positive nuclei fraction” value amounted to 73.3% in assay [1]; 147% in assay [2]; 163% in assay [3]; 92.9% in assay [4]; 92.1% in [5]; 155% in assay [6]. Moreover, the “cleaved PARP positive nuclei fraction” value in assay [7] came out at 116%; in assay [8] it was 102%; in assay [9], 98.6%.

Consider `NC(=O)c1ccc(N(C(N)=O)c2c(F)cccc2F)nc1-c1ccc(F)cc1F` + C[C@]12O[C@H](C[C@]1(O)CO)n1c3ccccc3c3c4c(c5c6ccccc6n2c5c31)CNC4=O [Lestaurtinib] (first compound 0.4 µM, partner dose 0.004 µM), for which the “cleaved PARP positive nuclei fraction” value was determined as 118% in assay [1]; 93% in assay [2]; 164% in assay [3]; 128% in assay [4]; 157% in [5]; 65.3% in [6]. Moreover, the “cleaved PARP positive nuclei fraction” value in assay [7] is 92.6%; in assay [8], 51.5%; in assay [9], 106%.

For `N#CC[C@H](C1CCCC1)n1cc(-c2ncnc3[nH]ccc23)cn1` [ruxolitinib] + C[As](C)SC[C@H](NC(=O)CC[C@H](N)C(=O)O)C(=O)NCC(=O)O [Darinaparsin] (first compound 1 µM, partner dose 0.4 µM), the “cleaved PARP positive nuclei fraction” value stood at 89.6% in assay [1]; 78.8% in assay [2]; 93.1% in assay [3]; 38.3% in assay [4]; 143% in assay [5]; 123% in assay [6]. For the same compound, the “cleaved PARP positive nuclei fraction” value in assay [7] came out at 95.5%; in assay [8], 169%; in assay [9], 106%.

`N#CC[C@H](C1CCCC1)n1cc(-c2ncnc3[nH]ccc23)cn1` [ruxolitinib] + N.N.[Cl][Pt][Cl] [cisplatin] (first compound 1 µM, partner dose 1.6 µM): the “cleaved PARP positive nuclei fraction” value was 86.3% in assay [1]; 97.9% in [2]; 173% in assay [3]; 100% in assay [4]; 82% in assay [5]; 327% in assay [6]. Also, the “cleaved PARP positive nuclei fraction” value turned out to be 113% in assay [7], 264% in assay [8] and 108% in [9].

For `CC(=O)c1c(C)c2cnc(Nc3ccc(N4CCNCC4)cn3)nc2n(C2CCCC2)c1=O` [palbociclib] + C[As](C)SC[C@H](NC(=O)CC[C@H](N)C(=O)O)C(=O)NCC(=O)O [Darinaparsin] (first compound 0.04 µM, partner dose 0.4 µM), the “cleaved PARP positive nuclei fraction” value in assay [1] is 285%; in assay [2], 54.2%; in assay [3] it was 117%; in [4], 257%; in assay [5], 114%; in [6] it was 59.5%. Besides, the entries for the “cleaved PARP positive nuclei fraction” value in [7], in assay [8] and in assay [9] were 104%, 89.9% and 121%, respectively.

As for `N.N.[Cl][Pt][Cl]` [cisplatin] + CS(=O)(=O)CCNCc1ccc(-c2ccc3ncnc(Nc4ccc(OCc5cccc(F)c5)c(Cl)c4)c3c2)o1 [lapatinib] (first compound 1.6 µM, partner dose 0.8 µM), the “cleaved PARP positive nuclei fraction” value in assay [1] came to 59.4%; in assay [2], 41.1%; in [3], 91.4%; in assay [4], 33%; in assay [5] it was 71.7%; in assay [6], 96.6%. In addition, the “cleaved PARP positive nuclei fraction” value in assay [7] worked out at 112%; in assay [8] it was 97%; in [9], 96%.

Turning to `Cn1cc(C2=C(c3cn(C4CCN(Cc5ccccn5)CC4)c4ccccc34)C(=O)NC2=O)c2ccccc21` [Enzastaurin] + CCCS(=O)(=O)Nc1ccc(F)c(C(=O)c2c[nH]c3ncc(Cl)cc23)c1F [PLX4720] (first compound 0.8 µM, partner dose 0.08 µM), the “cleaved PARP positive nuclei fraction” value in assay [1] was 56%; in assay [2] it was 92%; in assay [3], 87.2%; in assay [4] it was 127%; in assay [5], 94.2%; in [6], 168%. The “cleaved PARP positive nuclei fraction” value was found to be 114% in assay [7], 87% in assay [8] and 118% in assay [9].

`N.N.[Cl][Pt][Cl]` [cisplatin] + Nc1ccn([C@@H]2O[C@H](CO)[C@@H](O)C2(F)F)c(=O)n1 [gemcitabine] (first compound 1.6 µM, partner dose 0.0004 µM): the “cleaved PARP positive nuclei fraction” value in [1] came out at 80.8%; in assay [2], 46.1%; in assay [3], 72.6%; in assay [4], 37.7%; in assay [5] it was 71.5%; in assay [6], 122%. Moreover, the “cleaved PARP positive nuclei fraction” value in assay [7] is 246%; in [8], 248%; in assay [9], 116%.

`C[C@@H](N)c1ccc(C(=O)Nc2ccnc3[nH]ccc23)cc1` + C[As](C)SC[C@H](NC(=O)CC[C@H](N)C(=O)O)C(=O)NCC(=O)O [Darinaparsin] (first compound 0.4 µM, partner dose 0.4 µM): the “cleaved PARP positive nuclei fraction” value in assay [1] came to 76.8%; in assay [2], 102%; in assay [3] it was 229%; in assay [4], 159%; in [5], 80.2%; in assay [6], 26.7%. For the same compound, the “cleaved PARP positive nuclei fraction” value in assay [7] is 136%; in assay [8] it was 128%; in assay [9] it was 105%.

`CCCCCCCCCCCCCCCCCCOP(=O)([O-])OC1CC[N+](C)(C)CC1` [Perifosine] + C[C@]12O[C@H](C[C@]1(O)CO)n1c3ccccc3c3c4c(c5c6ccccc6n2c5c31)CNC4=O [Lestaurtinib] (first compound 0.4 µM, partner dose 0.004 µM): the “cleaved PARP positive nuclei fraction” value was 114% in assay [1]; 157% in [2]; 46.9% in assay [3]; 112% in [4]; 40.2% in assay [5]; 127% in assay [6]. Moreover, the results for the “cleaved PARP positive nuclei fraction” value in [7], in assay [8] and in assay [9] were 166%, 59.9% and 88.7%, respectively.

The record behind these values is the supplement of paper PMC4604168 (melanoma cell lines).
